Experimental data from PubChem BioAssay AID651640 (Broad Institute, 2012).
Where “and” joins values, the source holds several entries; their conditions need not be identical. Identical values can stand only once. About 6,000 (1.7%) of roughly 350,000 compounds were called active. This list was built around the results that the source calls inconclusive (neither active nor inactive); the mix of calls is not that of the screen. No stated cut-off is given here; in the data, active means CPE inhibition above about 20% (passing the limit was not always enough); inconclusive means no clear call, values can overlap the other calls; tested in BHK-21 cells.

Assay: protection of cells from dengue 2 killing – plate reader, single concentration, primary screen (AID 651640);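 further: 0% = median of neutral control wells and 100% = median of positive control wells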
Settings: DENV2-infected cells, cytopathic effect rescue, at 9.99 µM, active compounds read high

| SMILES | CPE inhibition |
| --- | --- |
| CCCCn1nnnc1C(c1cc2ccccc2o1)N1CCN(C(=O)OCC)CC1 (stereo not given) | inconclusive: 43.2% |
| COc1ccc(S(=O)(=O)Nc2ccc3c(c2)C(=O)N([C@@H](C)CO)C[C@@H](C)[C@@H](CN(C)C(=O)Nc2c(C)noc2C)OCCCC[C@H](C)O3)cc1 | inactive: 4.07% |
| CC12CC3CC(C)(C1)CC(C(=O)Nc1nncs1)(C3)C2 | inconclusive: 22.6% |
| c1ccc(CSc2nnc(NC3CCCCC3)s2)cc1 | inconclusive: 25.9% |
| O=C1c2ccccc2C(=O)N1CN(C(=O)c1ccccc1[N+](=O)[O-])c1ccc(F)cc1 | inactive: 6.04% |
| CC1CCCC(C)N1C(=S)NCc1ccco1 (stereo not given) | inconclusive: 24.2% |
| O=S(=O)(c1ccc(F)cc1)N1[C@@H]2CNC[C@H]1C2c1ccc(-c2cccc(F)c2)cc1 (stereo not given in full) | inactive: 3.44% and inactive: 4.01% |
| O=C(C[C@H]1C[C@H]2c3cc(NC(=O)CC4CC4)ccc3O[C@H]2[C@@H](CO)O1)NCc1ccc2c(c1)OCO2 | inconclusive: 23.5% |
| COc1ccccc1-c1ccc2c(c1)[C@H]1[C@H](CCN1S(=O)(=O)c1ccccc1F)[C@H](CO)N2 | active: 23.5% |
| O=C(/C=C/c1ccc(Cl)cc1)Nc1ccccc1N1CCOCC1 | inconclusive: 20.1% |
| O=Cc1ccc2noc(-c3ccc(Cl)cc3)c2c1 | inconclusive: 23.8% |
| C[C@H](CO)N1C[C@H](C)[C@H](CN(C)S(=O)(=O)c2cccs2)OCCCC[C@H](C)Oc2ccc(NS(=O)(=O)c3ccc(F)cc3)cc2C1=O | active: 30.9% |
| Cc1nn(CC(=O)NCCN2CCOCC2)c(=O)c2cc3sccc3n12 | inconclusive: 39.5% |
| CO[C@H]1CN(C)C(=O)c2cc(NS(=O)(=O)c3ccccc3)ccc2OC[C@@H](C)N(Cc2ccccn2)C[C@H]1C | inactive: -5.56% |
| CC(C)CC#Cc1ccc2c(c1)O[C@H](CN(C)C(=O)c1ccccn1)[C@@H](C)CN([C@@H](C)CO)S2(=O)=O | inconclusive: 71.8% |
| C[C@@H]1CCCCO[C@@H](CN(C)C(=O)c2ccncc2)[C@@H](C)CN([C@@H](C)CO)C(=O)c2cc(NC(=O)C3CCCCC3)ccc2O1 | inconclusive: 89.5% |
| O=S(=O)(c1ccccc1F)N1CC[C@@H]2[C@H](CO)Nc3ccc(-c4ccccc4)cc3[C@@H]21 | active: 23.8% |
| Cc1ccc2c(C)nc(Nc3nc(CSc4nc5ccccc5s4)cc(=O)[nH]3)nc2c1 | inactive: 2.66% |
| CN1C(=O)c2cc(NC(=O)c3cnccn3)ccc2OC[C@@H]2O[C@@H](CC(=O)NCC3CCCCC3)CC[C@H]21 | active: 30% |
| N#C[C@H]1[C@@H](c2ccccc2-c2cccc(F)c2)[C@H](CO)N1C(=O)C1CCC1 | inactive: -10% |
| CCc1ccc(NC(=O)COc2ccc(/C=C(/C#N)c3nc4ccccc4[nH]3)cc2OC)cc1 | inconclusive: 33.8% |
| C[C@@H]1CN([C@@H](C)CO)C(=O)c2cccc(NC(=O)NC3CCCCC3)c2O[C@H]1CN(C)C(=O)Nc1ccc(F)cc1 | inactive: -0.052% |
| CCOC(=O)c1ccc(N2C(=O)C(O)=C(C(C)=O)C2c2ccc([N+](=O)[O-])cc2)cc1 (stereo not given) | inconclusive: 40.4% |
| COC(=O)N/N=C/c1cn(CCOc2cccc(OC)c2)c2ccccc12 | inconclusive: 21.7% |

| SMILES | CPE inhibition |
| --- | --- |
| COc1ccc(CNC(=O)C(c2ccncc2)N(C(=O)Cc2cccs2)c2cccc(C)c2)cc1 (stereo not given) | inactive: 5.04% |
| COc1ccc(C(C)=O)cc1Cn1c(C)c(C(=O)NCc2cccc(Cl)c2)sc1=O | inconclusive: 39.8% |
| CC(=O)N1CC(C)Sc2ccc(S(=O)(=O)NCCc3ccc(C)cc3)cc21 (stereo not given) | inactive: -12.5% |
| CCS(=O)(=O)c1ccc(O)c(NC(=O)NC2CCCCC2)c1 | inconclusive: 41.8% |
| CCC(=O)Nc1ccc2c(c1)OC[C@@H](C)N(C(C)=O)C[C@@H](C)[C@@H](OC)CN(C)C2=O | active: 23.9% |
| CO[C@H]1CN(C)C(=O)c2cc(NC(=O)Nc3cccc(F)c3)ccc2OC[C@H](C)NC[C@H]1C | inconclusive: 28.6% |
| Cn1c(SCC(=O)c2cc3ccccc3o2)nnc1-c1ccccc1 | active: 66.8% |
| [O-][N+](=C(c1ccccc1)c1ccccc1)c1ccccc1 | inactive: 4.75% |
| Cc1ccc(S(=O)(=O)Nc2ccc3c(c2)C(=O)N([C@H](C)CO)C[C@H](C)[C@H](CN(C)S(=O)(=O)c2c(C)noc2C)OCCCC[C@H](C)O3)cc1 | active: 30.8% |
| COc1cc(-c2cnc3c(NC=O)cc(-c4ccc(N5CCN(C)CC5)cc4)cn23)cc(OC)c1OC | inactive: 6.05% |
| CO[C@@H]1CN(C)C(=O)c2ccc(NC(=O)Nc3ccccc3F)cc2OC[C@H](C)N(CC2CC2)C[C@@H]1C | inactive: 5.18% |
| C[C@@H]1CN([C@@H](C)CO)S(=O)(=O)c2ccc(-c3cncnc3)cc2O[C@H]1CN(C)CC1CC1 | inconclusive: 28.1% |
| CC1CCC2(CC1)NC(=O)N(CC(=O)NCc1ccc(Cl)cc1)C2=O (stereo not given) | inactive: -2.67% |
| COC(=O)[C@@H]1[C@@H](CO)[C@@H]2Cn3c(ccc(-c4ccccc4F)c3=O)[C@@H]2N1CC1CCOCC1 | inactive: -7.38% |
| CC(C)C#Cc1cnc2c(c1)C(=O)N([C@H](C)CO)C[C@@H](C)[C@H](CN(C)C(=O)Nc1cccc(F)c1)O2 | inactive: -5.72% |
| COc1ccc(SC[C@H](Cc2ccccc2)N2CC[C@@H](NC(=O)OCc3ccccc3)CCC2=O)cc1 | inconclusive: 73.7% |
| NCCNC(=O)Cn1c(=O)c2c3c(sc2n(Cc2ccccc2)c1=O)CCCC3 | inconclusive: 62.1% |
| CC/C(=N\NC(=O)c1ccc2c(c1)OCO2)c1ccccc1 | active: 33.1% |
| C[C@@H]1CN([C@H](C)CO)C(=O)Cc2cc(NC(=O)NC3CCCCC3)ccc2O[C@H]1CN(C)Cc1ccc(C(F)(F)F)cc1 | inactive: -5.2% |
| Cc1ccc(S(=O)(=O)NCC[C@H]2CC[C@H](NC(=O)Nc3cccc(F)c3)[C@@H](CO)O2)cc1 | inactive: -1.07% |
| COCC#Cc1ccc2c(c1)O[C@@H](CN(C)C(=O)Nc1ccc(OC)cc1)[C@H](C)CN([C@H](C)CO)S2(=O)=O | inconclusive: 71.9% |
| CCC(=O)N1C[C@H](C)[C@@H](OC)CN(C)C(=O)c2cc(NC(=O)NC3CCCC3)ccc2OC[C@H]1C | active: 43.1% |
| CCc1ccccc1NC(=O)C1CCN(C(=O)c2ccc([N+](=O)[O-])cc2)CC1 | inactive: 12.6% |
| N#C[C@@H]1[C@@H](c2ccc(-c3cncnc3)cc2)[C@H](CO)N1C(=O)C1CCCC1 | active: 23.1% |

| SMILES | CPE inhibition |
| --- | --- |
| C#CCN(Cc1ccco1)C(=O)c1nnc2c3ccccc3n(S(=O)(=O)c3ccc(C)cc3)c2n1 | active: 24.5% |
| CNC[C@H]1Oc2ccc(NS(=O)(=O)c3ccc(Cl)cc3)cc2C(=O)N([C@H](C)CO)C[C@H]1C | active: 28.4% |
| COc1ccc(-c2cn(CCO)nc2-c2ccc(OC)cc2)cc1 | inconclusive: 28.4% |
| C[C@H]1CCCCO[C@H](CN(C)C(=O)Nc2cccc3ccccc23)[C@@H](C)CN([C@@H](C)CO)C(=O)c2cc(NS(=O)(=O)c3ccc(Cl)cc3)ccc2O1 | active: 44.4% |
| CCOC(=O)Cn1c(C)[n+](C)c2cc(Cl)c(Cl)cc21 | inconclusive: 29.8% |
| COc1ccc2c3c(n(C)c2c1)[C@@H](CO)NCC31CCN(Cc2ccc(-c3ccccn3)cc2)CC1 | inactive: -0.499% |
| O=C(O)C1=CC[C@@H](c2ccc(Cl)cc2)N(S(=O)(=O)c2ccc(Cl)cc2)[C@H]1c1ccc(Br)cc1 | inconclusive: 55% |
| CCCNC(=O)N(C)C[C@@H]1Oc2ncc(C#Cc3ccncc3)cc2C(=O)N([C@@H](C)CO)C[C@@H]1C | inactive: 5.97% |
| COc1ccc(S(=O)(=O)N2CCCOC2CNC(=O)C(=O)NCCCN2CCOCC2)cc1 (stereo not given) | inconclusive: 39.7% |
| O=C1N[C@H](Cc2ccccc2)COC(=O)[C@H](Cc2ccc(F)cc2)C/C=C\C[C@H]1CC(=O)N(CCO)Cc1ccccc1 | inconclusive: 20.8% |
| CCN(CC)c1ccc(NC(=O)c2ccccc2Br)cc1S(=O)(=O)Nc1ccccc1OC | inconclusive: 32.4% |
| C[C@@H]1CN([C@H](C)CO)C(=O)c2cc(-c3cccc(F)c3)cnc2O[C@@H]1CN(C)Cc1cccnc1 | inactive: -3% |
| CC(=O)Nc1cccc(-c2csc(C(C)(O)c3ccc(F)c(F)c3)n2)c1 (stereo not given) | inconclusive: 26.9% |
| COc1ccccc1C(=O)Nc1ccc2c(c1)CN(Cc1cnc(C)s1)CC2 | active: 32.9% |
| COC(=O)[C@@H](Cc1ccccc1)NS(=O)(=O)N[C@H](Cc1ccccc1)C(=O)OC | inconclusive: 77.8% |
| Cc1ccc(S(=O)(=O)N2CCCCC2)cc1NC(=O)CCNC(=O)c1ccc([N+](=O)[O-])cc1 | inconclusive: 23.6% |
| COc1cc(NC(=O)c2ccc(OCc3c(C)noc3C)c(OC)c2)cc(OC)c1 | inconclusive: 29% |
| C[C@H](CO)N1C[C@H](C)[C@H](CN(C)Cc2ccncc2)Oc2ncc(C#CC3CCCC3)cc2C1=O | inconclusive: 36.9% |
| COc1ccc2c3c(n(C)c2c1)[C@@H](CO)N(C(=O)CN1CCOCC1)CC31CN(C(C)=O)C1 | inactive: 4.51% |
| COc1ccc(NC(=O)c2sc3nc(N4CCOCC4)c4c(c3c2N)CC(C)(C)OC4)c(OC)c1 | inactive: 3.08% |
| Nc1ncnc2c1ncn2[C@@H]1O[C@H](CO)[C@@H](O)[C@@H]1O | inactive: -3.46% |
| Cc1noc(C)c1NC(=O)Nc1ccc2c(c1)C(=O)N([C@H](C)CO)C[C@@H](C)[C@H](CN(C)Cc1ccc(Cl)c(Cl)c1)OCCCC[C@H](C)O2 | active: 23.3% |
